Earlier results, collected in patent publication US20080108632A1, “HCV PROTEASE INHIBITORS” (TaiGen Biotechnology Co., Ltd., priority 2006, published 2008).
Some results were stated once for a whole list of compounds, not compound by compound.

Tested on: HCV infection
Details: patients with HCV infection; cited from earlier work

## interferon-α
  sustained response rates: < 50%
